Taken from: PubChem BioAssay AID1671195 (Yale University, 2021)
In all, the deposit lists about 22,000 reagents; shown is a part drawn at random. About 1,510 of them (6.9%) were called active. 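Active includes knockdowns raising or lowering LDL uptake; positive z-scores mean more uptake, negative mean less.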 A number with no mark means an inactive call. Reagent sequences are not shown.

Screen: 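Knockdowns that increase or decrease uptake of fluorescent LDL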 (primary screen)
Cell system: human Huh7 hepatoma cells
Knock-down reagent: siRNA pool against human genes, 18 nM
Duration: about 2 to 2.5 days of knockdown, then 8 h LDL uptake
Treatment: DiI-labelled LDL at 30 µg/ml for 8 h, in lipoprotein-deficient serum medium
Detection: 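Per-cell DiI-LDL intensity by automated imaging; well means scaled to the plate median and given as a robust z-score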
Scale: robust z-score: higher = more LDL uptake after knockdown
Active means: 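a gene counts as active if at least two replicate z-scores exceed ±2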

target,"robust z-score, replicate 1","robust z-score, replicate 2","robust z-score, replicate 3"
PDGFRA (platelet derived growth factor receptor alpha),0.716,0.369,1.64
SLC9B2,-0.923,-0.136,-0.165
LOC440698 (retired record),-0.479,-0.619,-0.411
MIXL1 (Mix paired-like homeobox),0.585,-0.106,0.288
PTPN9 (protein tyrosine phosphatase non-receptor type 9),-0.73,-0.645,-0.638
COX19 (cytochrome c oxidase assembly factor COX19),-0.606,-0.45,-0.621
AACS (acetoacetyl-CoA synthetase),1.72,-0.118,-0.158
PURG (purine rich element binding protein G),0.133,1.39,1.14
PTBP1 (polypyrimidine tract binding protein 1),-0.918,-0.563,-0.777
PDXP (pyridoxal phosphatase),-1.26,-0.64,-0.878
LOC442039 (retired record),0.966,0.184,0.792
SCAF8 (SR-related CTD associated factor 8),0.0758,-0.469,-0.106
CLDN23 (claudin 23),0.37,-0.187,-0.149
MRPS14 (mitochondrial ribosomal protein S14),0.54,0.524,1
KLK12 (kallikrein related peptidase 12),0.788,1.24,1.15
MRFAP1L2 (Morf4 family associated protein 1 like 2),1.74,1.75,1.19
STAC3 (SH3 and cysteine rich domain 3),-0.0277,-0.108,-0.0292
PRPF40B (pre-mRNA processing factor 40B),1.31,1.85,0.643
SH3BGRL2 (SH3 domain binding glutamate rich protein like 2),0.259,0.57,0.299
CNGA1 (cyclic nucleotide gated channel subunit alpha 1),-1.18,-0.806,-0.508
ABCC3 (ATP binding cassette subfamily C member 3),-0.587,-0.539,-0.689
TFAP2E (transcription factor AP-2 epsilon),0.392,0.248,0.304
LOC441446 (retired record),-0.22,-0.57,-0.649
LRRC56 (leucine rich repeat containing 56),1.29,1.29,0.452
MFAP2 (microfibril associated protein 2),0.00996,0.075,-0.763
TSPAN3 (tetraspanin 3),-0.0949,-0.629,-0.515
"PNPLA5 (patatin like domain 5, triacylglycerol lipase)",-1.02,-1.6,-1.2
NEK3 (NIMA related kinase 3),1.85,1.49,0.788
HMGA1 (high mobility group AT-hook 1),-1.11,-0.425,-1.16
ECM1 (extracellular matrix protein 1),0.399,-0.69,0.184

Continued, starting with the last 5 of the part before.
target,"robust z-score, replicate 1","robust z-score, replicate 2","robust z-score, replicate 3"
TSPAN3 (tetraspanin 3),-0.0949,-0.629,-0.515
"PNPLA5 (patatin like domain 5, triacylglycerol lipase)",-1.02,-1.6,-1.2
NEK3 (NIMA related kinase 3),1.85,1.49,0.788
HMGA1 (high mobility group AT-hook 1),-1.11,-0.425,-1.16
ECM1 (extracellular matrix protein 1),0.399,-0.69,0.184
RDH16 (retinol dehydrogenase 16),-1.15,-0.847,-1.02
LOC401913,-1.23,-1.17,-1.73
TRIP4 (thyroid hormone receptor interactor 4),1.03,0.0818,-0.0219
"VEZT (vezatin, adherens junctions transmembrane protein)",0.0523,1.26,-0.302
PYCARD (PYD and CARD domain containing),-0.533,0.46,-0.596
LRRN4CL (LRRN4 C-terminal like),2.5 (active),2.17,2.39
ATP6V1E1P1 (ATPase H+ transporting V1 subunit E1 pseudogene 1),-1.1,-0.753,-0.435
LOC344172 (retired record),0.408,0.271,0.203
MTF2 (metal response element binding transcription factor 2),-0.546,-0.706,-0.856
LOC440978 (retired record),-0.0375,0.000677,0.00396
UBA52 (ubiquitin A-52 residue ribosomal protein fusion product 1),-1.56,-1.76,-2.09
ZFYVE21 (zinc finger FYVE-type containing 21),-0.735,-0.437,-0.582
JOSD1 (Josephin domain containing 1),-1.78,-0.708,1.49
DEPTOR (DEP domain containing MTOR interacting protein),-1.21,-1.3,-1.42
ADGRE3 (adhesion G protein-coupled receptor E3),0.478,0.144,-0.3
ADORA2B (adenosine A2b receptor),0.0326,-1.08,-0.653
"TUFM (Tu translation elongation factor, mitochondrial)",-0.276,-0.207,-0.656
OR51B5 (olfactory receptor family 51 subfamily B member 5),1.5,2.3,1.51
GAPDHP23 (glyceraldehyde 3 phosphate dehydrogenase pseudogene 23),-2.11 (active),-2.18,-2.02
LOC441269 (retired record),0.282,0.399,0.868
ZNF548 (zinc finger protein 548),0.864,0.793,0.0231
DLL4 (delta like canonical Notch ligand 4),-1.2,-1.01,-1.02
SAE1 (SUMO1 activating enzyme subunit 1),-1.67,-1.67,-1.29
EBLN2 (endogenous Bornavirus like nucleoprotein 2),-0.846,-0.826,0.214
ZBED4 (zinc finger BED-type containing 4),0.964 (active),3.29,3.25
CYP3A7 (cytochrome P450 family 3 subfamily A member 7),-0.093,-0.242,-0.0315
FITM2 (fat storage inducing transmembrane protein 2),0.951 (active),3.5,2.12
FGG (fibrinogen gamma chain),1.89,-0.32,0.31
STON2 (stonin 2),-0.272,0.696,-0.103
USP17L2 (ubiquitin specific peptidase 17 like family member 2),-1.42,-1.41,-1.45
SLC22A2,-1.69,-1.82,-1.9
TPH1 (tryptophan hydroxylase 1),-0.319,-0.199,-0.266
GGT7 (gamma-glutamyltransferase 7),1.68,3.43,1.91
SPACA3 (sperm acrosome associated 3),-0.0706,-0.177,-0.534
SMG7 (SMG7 nonsense mediated mRNA decay factor),-0.339,1.64,1.35
C12orf60 (chromosome 12 open reading frame 60),-0.188,0.621,0.767
APEH (acylaminoacyl-peptide hydrolase),-0.44,0.123,0.289
KDR (kinase insert domain receptor),-1.37,-0.985,-1.24
